Whole data set: some 33,000 sequences, median “E-score (-0.5 to 0.5)” near -0.0034, cut for the highest 2% near 0.25. The list shows a part of the results.
biological target: T1, Yap3 (UniProt P38749); test: PBM E-score (8-mer binding enrichment) (E-score (-0.5 to 0.5)); higher = stronger / more preferred TF binding; conditions: protein concentration: 100 nM; construct: GST-full length
T1 sequence: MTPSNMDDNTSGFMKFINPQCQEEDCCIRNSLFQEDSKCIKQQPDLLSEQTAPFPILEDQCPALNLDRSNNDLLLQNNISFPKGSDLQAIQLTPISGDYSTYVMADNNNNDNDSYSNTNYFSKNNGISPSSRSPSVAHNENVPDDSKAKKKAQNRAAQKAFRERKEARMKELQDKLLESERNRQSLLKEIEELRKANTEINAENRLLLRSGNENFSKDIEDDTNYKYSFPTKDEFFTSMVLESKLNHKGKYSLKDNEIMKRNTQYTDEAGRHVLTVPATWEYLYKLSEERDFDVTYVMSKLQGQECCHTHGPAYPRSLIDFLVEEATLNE
Method in brief: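 Universal all-10-mer Agilent arrays, fresh or stripped once, were converted to double-stranded form by primer extension. GST-tagged yeast transcription factors from PURExpress in vitro transcription/translation, full-length or DNA-binding domain only, were applied at about 100-200 nM and detected with fluorescent anti-GST. After masliner normalisation, the Universal PBM Analysis Suite scored each ungapped eight-base word together with its reverse complement by E-score.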

Going from ATAATAAA to TACCATCA, the “PBM E-score” value falls from 0.277 to -0.0163.

Compared with GGGTAAGA, AACTCGCG is higher in “PBM E-score” value: -0.0599 for the first, 0.16 for the second.

First: ACTAGTCC
Second: CTAATACC
The “PBM E-score” value of the first is higher: 0.0839 for the first, -0.00244 for the second.

Going from ATTAGTTG to GCCTACTA, the “PBM E-score” value falls from 0.192 to 0.0106.

First: CGATTACA
Second: ATGCCAAA
The “PBM E-score” value of the first is higher: 0.0949 for the first, 0.0184 for the second.

First: ATCCTGAA
Second: AGACATCG
The “PBM E-score” value of the first is higher: 0.101 for the first, -0.0691 for the second.

First: AAGGTGGA
Second: AATGGCGC
The “PBM E-score” value of the first is lower: -0.11 for the first, -0.0261 for the second.

Going from CGGTAAAC to ACTGCTAT, the “PBM E-score” value rises from -0.0335 to 0.0347.

Going from CACAGCAA to ACCGGTAT, the “PBM E-score” value falls from 0.103 to -0.0131.

First: CGACGTAA
Second: GTCCCCGA
The “PBM E-score” value of the first is higher: 0.19 for the first, -0.15 for the second.

Compared with CGACTCAA, ACGCGCGA is lower in “PBM E-score” value: 0.143 for the first, 0.033 for the second.

Compared with AGTTATAT, AACTCATA is lower in “PBM E-score” value: 0.213 for the first, 0.0078 for the second.

Going from CCGAGAGA to CGGACAGC, the “PBM E-score” value falls from 0.0746 to -0.00453.

Going from ACTCTAGG to GAACTATA, the “PBM E-score” value rises from -0.204 to 0.244.

Compared with GTACGAAA, ACTCACCT is lower in “PBM E-score” value: 0.173 for the first, 0.0229 for the second.

Compared with CGGGACAG, AGCGCCAA is lower in “PBM E-score” value: -0.0087 for the first, -0.09 for the second.

Going from GTTGCTCA to GAGTTTCC, the “PBM E-score” value falls from 0.00846 to -0.0875.

Compared with ACAGAGTC, GTTACCAA is higher in “PBM E-score” value: -0.00646 for the first, 0.221 for the second.

First: AAAGAGCA
Second: CTGCCCGA
The “PBM E-score” value of the first is higher: 0.132 for the first, 0.00809 for the second.

Going from AAAAACCT to CGGTGACC, the “PBM E-score” value falls from 0.141 to -0.188.

Compared with AGCAACCA, AAATCGGC is lower in “PBM E-score” value: 0.199 for the first, 0.0436 for the second.

Compared with AGTATTAG, CCATCACA is lower in “PBM E-score” value: 0.327 for the first, -0.0823 for the second.

Going from CACGGATG to AACTGATG, the “PBM E-score” value rises from -0.164 to 0.116.

Compared with ATTGCCTG, GAACATTA is higher in “PBM E-score” value: 0.0751 for the first, 0.138 for the second.

Going from AGGGCCTG to CAAGGGGA, the “PBM E-score” value rises from -0.23 to -0.0404.

First: TCAAATCA
Second: CGAGTCTA
The “PBM E-score” value of the first is higher: 0.105 for the first, -0.241 for the second.

Going from AAAGGGTA to AAGCGCCC, the “PBM E-score” value falls from 0.0592 to -0.242.

Going from AGGAAGGC to GCTATAAC, the “PBM E-score” value rises from -0.202 to -0.0777.

Compared with GTGTTTCA, CTCGGCGA is higher in “PBM E-score” value: -0.0433 for the first, 0.129 for the second.

Going from AAAGGAAA to ATGTAACA, the “PBM E-score” value rises from 0.131 to 0.256.

First: GGGCCACC
Second: CTTCAGAA
The “PBM E-score” value of the first is lower: -0.256 for the first, -0.028 for the second.

Compared with CCCCACCC, CCCTACGC is lower in “PBM E-score” value: 0.1 for the first, -0.221 for the second.

Compared with GCCTGAAC, ATCAGCCC is higher in “PBM E-score” value: -0.28 for the first, 0.0268 for the second.

First: CCATATTC
Second: CAATGTCC
The “PBM E-score” value of the first is higher: 0.103 for the first, -0.0423 for the second.

First: ACCTTCGG
Second: GTGCCAGA
The “PBM E-score” value of the first is higher: -0.0953 for the first, -0.269 for the second.

First: CAGTATGC
Second: AGTGTAAA
The “PBM E-score” value of the first is lower: -0.0936 for the first, 0.0399 for the second.

Compared with TATCTCGA, CGCTTGGA is lower in “PBM E-score” value: 0.0776 for the first, 0.00137 for the second.

Going from GCCTCACC to GGCTCGAC, the “PBM E-score” value rises from -0.163 to -0.0402.

First: AGAGGCCT
Second: AAGGTTGC
The “PBM E-score” value of the first is lower: -0.118 for the first, -0.0131 for the second.

Compared with ATCGATGG, CGGTATAC is lower in “PBM E-score” value: 0.0551 for the first, -0.0811 for the second.

First: GGTATGCA
Second: AGTTTTGA
The “PBM E-score” value of the first is lower: -0.104 for the first, 0.05 for the second.

Compared with AAATCTAA, GGGCCCAA is lower in “PBM E-score” value: 0.0988 for the first, -0.191 for the second.

Going from CACGTGTC to CGGGGGGC, the “PBM E-score” value falls from -0.0684 to -0.396.

First: GGGATTGA
Second: GCAGCAAA
The “PBM E-score” value of the first is lower: -0.173 for the first, -0.0366 for the second.

Compared with ACTCTAAT, GATCCTCC is lower in “PBM E-score” value: 0.116 for the first, -0.122 for the second.

First: ACTCCAAC
Second: AATGGCCT
The “PBM E-score” value of the first is lower: -0.0571 for the first, 0.00783 for the second.

Going from GGATGGAA to CGGACGCC, the “PBM E-score” value rises from -0.0998 to -0.0755.

Going from ACATCCGG to GCTTGGGA, the “PBM E-score” value falls from 0.0295 to -0.0903.

First: ACAGCGTC
Second: AGGAGCCT
The “PBM E-score” value of the first is higher: 0.083 for the first, -0.293 for the second.

First: CACTGGAG
Second: ATCAGCAG
The “PBM E-score” value of the first is lower: -0.201 for the first, 0.0685 for the second.

Going from GGTCCGTA to CAGGAATA, the “PBM E-score” value rises from -0.184 to 0.0125.

Compared with ACACTCCC, CATTTTCA is higher in “PBM E-score” value: -0.0492 for the first, 0.196 for the second.

First: ATCATAAA
Second: GGAATAAA
The “PBM E-score” value of the first is higher: 0.193 for the first, 0.0795 for the second.

Compared with CGGACCTA, GGGTCCAA is lower in “PBM E-score” value: 0.033 for the first, -0.13 for the second.

Compared with TAAGTACA, ATTTAATC is higher in “PBM E-score” value: 0.18 for the first, 0.212 for the second.
